Test results reported in PubChem BioAssay AID504842 (National Center for Advancing Translational Sciences (NCATS), 2011).
“And” between values parts separate entries of the source, which are not always exact repeats. Identical values can stand only once. Screen size: about 330,000 compounds; about 100 (0.03%) were called active. This list was built around the results that the source calls inconclusive (neither active nor inactive); the mix of calls is not that of the screen. Calls come from the whole dose curve; as a rule, active = well fitted inhibition curve with a large enough effect; inconclusive = small, poorly fitted or top-dose-only effect; inactive = flat fitted curve, though single readings scatter. Where the call is inconclusive, the potency comes from a doubtful curve fit.

Each compound was assayed on Chaperonin Mm-Cpn (Methanococcus maripaludis) (assay: Inhibitors of TCP-1 ring complex (TRiC) of Methanococcus maripaludis (MmCpn): qHTS). Settings: purified Mm-Cpn ATPase, ADP Transcreener TR-FRET; series mostly up to 76.9 µM; activity, negative = inhibition: at the top concentration.
Method in brief: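 Purified archaeal Mm-CPN (25nM final) preincubated 10 min at 37degC with compound, then 10uM ATP for 30 min at 37degC; ADP measured by HTRF Transcreener TR-FRET; buffer 30 mM TRIS pH 7.4, 100mM KCl, 5mM MgCl2, 1mM DTT.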
% is set by controls: 0 for no effect and ±100 for the full control effect; potency is the fitted concentration of half-maximal effect.
Note: nearly all actives have a fitted effect of over 80% in size.
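Throughout, for potency: enzyme at 25 nM with ATP substrate at 10 µM during the reaction.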

| SMILES | Potency | activity, negative = inhibition |
| --- | --- | --- |
| CCN1CCN(c2nc3c(c(=O)[nH]c(=O)n3C)n2CCCSc2ncccn2)CC1 | inconclusive: 5.62 µM [inhibitor, single point] |  |
| Cc1ccc(SC[C@H](C)CN2CC[C@H](C)CCC2=O)cc1 |  | inactive: -0.461% |
| N#CNC(=Nc1cccc(C(F)(F)F)c1)SCc1ccc(C(=O)O)cc1 | inconclusive: 12.6 µM [inhibitor, single point] |  |
| CC(NC(=O)NNC(N)=S)(C(F)(F)F)C(F)(F)F |  | inactive: -0.0651% |
| Cc1onc(-c2c(Cl)cccc2Cl)c1C(O)c1ccccc1 (centres undefined) | inconclusive: 89.1 µM [inhibitor, single point] |  |
| CC(=O)c1ccc(NS(=O)(=O)c2ccc(N)cc2)cc1 |  | inactive: -0.803% |
| CC(CNCC1CCCO1)COc1cccc2ccccc12 (centres undefined) | inconclusive: 28.2 µM [inhibitor, single point] |  |
| CCCOC(=O)C1=C(C)NC2=C(C(=O)CCC2)C1c1cccc(OC)c1OC (centres undefined) |  | inactive: -0.336% |
| NNC(=S)Nc1cccc(-c2n[nH]c(=S)o2)c1 | inconclusive: 70.8 µM [inhibitor, partial curve, poor fit] |  |
| N#CCCSc1nc(N2CCOCC2)c2c(c1C#N)CCCC2 | inconclusive: 17.8 µM [inhibitor, single point] |  |
| CC(Sc1nc(-c2ccccc2)cc(C(F)(F)F)n1)C(=O)N1CCCCC1 (centres undefined) | inconclusive: 12.6 µM [inhibitor, single point] |  |
| Cc1ccc2nc(-c3cccc(Br)c3)cc(C(=O)NC3=NCCS3)c2c1 | inconclusive: 251 µM [inhibitor, partial curve, poor fit] |  |
| COc1ccccc1OCC(=O)N/N=C1\CCc2ccccc21 |  | inactive: 1.77% |
| O=C(NCc1cccs1)c1cnc2ccccn2c1=O |  | inactive: 1.56% |
| COc1ccc(C2c3sc(=O)[nH]c3SC3C4CCC(C4)C23)cc1 (centres undefined) |  | inactive: -9.77% |
| Cc1cccc(C(=O)O[C@H]2[C@H](Cc3ccccc3)NS(=O)(=O)[C@H]3CC4C=C[C@]23O4)c1 | inconclusive: 56.2 µM [inhibitor, single point] |  |
| O=C(c1ccc(-c2ccc(Cl)cc2Cl)o1)N1CCOCC1 | inconclusive: 28.2 µM [inhibitor, single point] |  |
| CCCN(CC(=O)Nc1ccc(Cl)cc1Cl)C(=O)/C=C/c1cc(OC)ccc1OC |  | inactive: -0.924% |
| CCC(Cc1ccccc1)NS(=O)(=O)c1c(C)nc2sccn2c1=O (centres undefined) | inconclusive: 20 µM [inhibitor, single point] |  |
| O=C1c2ccccc2NC(c2ccc(-c3cccc(F)c3)o2)N1O (centres undefined) | inconclusive: 17.8 µM [inhibitor, partial curve, poor fit] |  |
| CC(=O)c1cccc(CN2CCN(CCc3ccccc3)C(CCO)C2)c1 (centres undefined) |  | inactive: -0.166% |
| CCOC(=O)c1c(-c2ccc(C)o2)csc1NC(=O)COC(=O)c1ccc(NC(N)=O)cc1 | inconclusive: 50.1 µM [inhibitor, partial curve] |  |
| Cc1c(C(=O)N2CCCCCC2)nnn1-c1nonc1N | inconclusive: 25.1 µM [inhibitor, single point] |  |

| SMILES | Potency | activity, negative = inhibition |
| --- | --- | --- |
| CN(C)S(=O)(=O)c1cccc(NC(=S)N2CCc3ccccc32)c1 | inconclusive: 100 µM [inhibitor, partial curve, poor fit] |  |
| CCOc1ncccc1C(=O)OCC(=O)Nc1nnc(-c2ccccc2)o1 | inconclusive: 56.2 µM [inhibitor, single point] |  |
| COc1ccccc1NC(=O)c1coc(=O)c(Br)c1 | inconclusive: 794 µM [inhibitor, partial curve, poor fit] |  |
| CC(C)(C)C(=O)NC1CC2CCCC(C1)N2C(=O)Nc1ccccc1 (centres undefined) | inconclusive: 50.1 µM [inhibitor, single point] |  |
| CCOC(=O)C1=C(CN2CCC(C)CC2)NC(=O)NC1c1ccc(Cl)cc1 (centres undefined) |  | inactive: -2.41% |
| Cc1cc(C(=O)COC(=O)CC(NC(N)=O)c2ccc(Cl)cc2)c(C)n1C (centres undefined) | inconclusive: 63.1 µM [inhibitor, single point] |  |
| Cc1csc(SC(C)C(=O)Nc2ccc3c(c2)OCCO3)n1 (centres undefined) | inconclusive: 25.1 µM [inhibitor, single point] |  |
| CCOC(=O)c1cc(Br)c(=O)n2ccccc12 | active: 28.2 µM |  |
| CCOc1ccc(/C=N/NC(=O)c2c(-c3ccccc3)noc2C)cc1 | inconclusive: 56.2 µM [inhibitor, single point] |  |
| Cn1c(CNC(=O)CNC(=O)c2cccc(F)c2)cc(=O)n(C)c1=O | inconclusive: 79.4 µM [inhibitor, single point] |  |
| COc1cccc(N2CCN(S(=O)(=O)c3ccc4c(c3)NC(=O)C(C)C(=O)N4)CC2)c1 (centres undefined) |  | inactive: -0.291% |
| Cc1n[nH]c(=S)n1/N=C/c1cccc(OCc2ccccc2)c1 |  | inactive: 1.93% |
| Cc1ccc(C(=O)Nc2ccc(S(=O)(=O)NC3=NCCCCC3)cc2)c(C)c1 | inconclusive: 100 µM [inhibitor, partial curve, poor fit] |  |
| COCCn1c(=NC(=O)c2ccc(S(=O)(=O)N3CCc4ccccc4C3)cc2)sc2cc(S(N)(=O)=O)ccc21 | inconclusive: 141 µM [inhibitor, partial curve, poor fit] |  |
| CC1=C(C(=O)OCC2CCCO2)C(c2ccc(O)cc2)NC(=O)N1 (centres undefined) | inconclusive: 89.1 µM [inhibitor, single point] |  |
| CN1CCN(c2ccc(CNS(=O)(=O)Cc3ccc(Cl)cc3)cc2)CC1 | inconclusive: 100 µM [inhibitor, single point] |  |
| CCn1c(SCCC(=O)O)nnc1-c1cccnc1 |  | inactive: -1.82% |
| COc1ccc2nc(-c3ccc(N)cc3)[nH]c2c1 | inconclusive: 178 µM [inhibitor, partial curve, poor fit] |  |
| O=C(Cc1ccccc1F)Nc1cc(Cl)ccc1N1CCCC1 | inconclusive: 100 µM [inhibitor, single point] |  |
| CC(=O)c1sc(NC(=O)c2cc(S(=O)(=O)N3CCOCC3)ccc2F)nc1C | inconclusive: 22.4 µM [inhibitor, single point] |  |
| CCCN(CCC)S(=O)(=O)c1ccc(C(=O)NCc2ccc3c(c2)OCO3)cc1 | inconclusive: 14.1 µM [inhibitor, single point] |  |
| Cc1ccc(-c2cc(C(=O)O)c3cc(Br)ccc3n2)s1 | inconclusive: 25.1 µM [inhibitor, partial curve, poor fit] and inconclusive: 398 µM [inhibitor, partial curve, poor fit] |  |
| Cc1ccc(NC(=S)N/N=C2\CC3CC=CC23)c(C)c1 (centres undefined) | inconclusive: 22.4 µM [inhibitor, single point] |  |

| SMILES | Potency | activity, negative = inhibition |
| --- | --- | --- |
| Cc1noc2ncnc(Oc3cc(Cl)ccc3Cl)c12 |  | inactive: 1.6% |
| CCN(C(=O)COC(=O)c1c(C)nsc1NC)c1ccccc1 | inconclusive: 70.8 µM [inhibitor, single point] |  |
| COc1ccc(C)cc1NC(=O)CCCNC(=O)Cn1cnc2sc(C)c(C)c2c1=O | inconclusive: 50.1 µM [inhibitor, single point] |  |
| O=C(Nc1cccc2ccccc12)c1cn(-c2ccccc2)nc1-c1cccs1 | inconclusive: 89.1 µM [inhibitor, single point] |  |
| COc1ccccc1CN(Cc1nc2ccccc2c(=O)[nH]1)S(=O)(=O)c1ccc(C)cc1 | inconclusive: 100 µM [inhibitor, single point] |  |
| CCCCc1cc(=O)oc2cc(C)cc(OCC(=O)N3CCC(C(=O)O)CC3)c12 | inconclusive: 200 µM [inhibitor, partial curve, poor fit] |  |
| Cc1cc(CNC(=O)c2cc(COc3ccc(F)c(F)c3)on2)nn1C |  | inactive: -3.4% |
| CCN(CC)S(=O)(=O)c1ccc2[nH]cc(C(=O)NCCN3CCCCCC3)c(=O)c2c1 | inconclusive: 25.1 µM [inhibitor, single point] |  |
| CC(SC1=NCCN1S(C)(=O)=O)c1ccccc1 (centres undefined) | inconclusive: 89.1 µM [inhibitor, single point] |  |
| COCCCn1c(=O)c2ccccc2n2c(=S)[nH]nc12 |  | inactive: -2% |
| Cc1cc(OCC(=O)NCc2ccncc2)c2c(C)cc(=O)oc2c1 | inconclusive: 89.1 µM [inhibitor, single point] |  |
| Cc1ccc(Cl)c2sc(NC(=O)C3=COCCO3)nc12 |  | inactive: 0.427% |
| C=CCNC1=C(Cl)C(=O)N(Cc2ccccc2)C1=O | inconclusive: 20 µM [inhibitor, single point] |  |
| Cc1ccc(NC(=O)c2cc(-c3ccc(C)o3)nc3ccccc23)cc1 | inconclusive: 398 µM [inhibitor, partial curve, poor fit] |  |
| CCc1ccc(NC(=O)c2ccc(-n3cncn3)c([N+](=O)[O-])c2)cc1 |  | inactive: 1.64% |
| CC(C)NCCCOc1ccc(C(C)(C)c2ccccc2)cc1 | inconclusive: 10 µM [inhibitor, single point] |  |
| Cc1ccc(C(=O)CC(Nc2ccc(F)cc2)c2ccccc2)cc1 (centres undefined) |  | inactive: -1.45% |
| O=C(CN1C(=O)NC2(CCCC2)C1=O)NCCN1C(=O)S/C(=C\c2ccccc2F)C1=O |  | inactive: 0.963% |
| CC12CCC(=O)N1C(C(=O)Nc1nnc(SCc3ccc(F)cc3)s1)CS2 (centres undefined) |  | inactive: -2.39% |
| CC(C)NC(=O)CC1Nc2c3ccccc3nc(=S)n2C1=O (centres undefined) | inconclusive: 17.8 µM [inhibitor, single point] |  |
| CCOC(=O)C1CCCc2c1[nH]c1ccc(Cl)cc21 (centres undefined) | inconclusive: 14.1 µM [inhibitor, single point] |  |
| N#Cc1cc(S(=O)(=O)c2ccc(Cl)cc2)c(N)[nH]c1=O | inconclusive: 79.4 µM [inhibitor, single point] |  |
| O=C(CN1CCSCC1)N/N=C/c1ccc(F)c(F)c1 | inconclusive: 17.8 µM [inhibitor, single point] |  |
